Data source: PubChem BioAssay AID686938 (Drosophila RNAi Screening Center, 2013)

Purpose: 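Looking for CRAC channel components and the factors controlling them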 (primary screen)
Cells: Drosophila S2R+ cells
Reagents: long dsRNA against Drosophila genes, about 0.25 µg dsRNA per well, roughly 10,000 cells
Time to read-out: 5 days of knock-down before the calcium assay
Conditions: thapsigargin (SERCA pump blocker) to empty calcium stores; entry signal taken 4 min after adding it
Measurement: 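Duplicate raw fluo-4 intensities per well from a plate reader, at rest and four minutes after thapsigargin emptied calcium stores; entry-to-rest ratio filled for only some wells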
Scale: calcium entry signal: higher = stronger calcium signal after store depletion; resting calcium signal: higher = higher resting calcium signal
Units: calcium entry signal in fluorescence units; resting calcium signal in fluorescence units
Hit rule: 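Called when the plate z-score of the entry-to-rest ratio, mean of duplicates, falls below −3; wells with low overall dye signal (Fmax z below −2) or more than five off-targets excluded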
Calls: active = strongly reduced calcium entry; inactive = no strong reduction
The screen tested about 23,000 reagents; shown is an unselected part of those with a known target gene and a result. Over the whole deposit, 75 (0.33%) got an active call. 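Raw plate signals without normalisation; calls rest on plate z-scores that were not deposited; ratio present for only 364 wells.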 Unmarked entries are inactive. A plus sign joins genes that one reagent is predicted to hit. No sequences are given here. The record does not give: the dose of the treatment.

Npc2a (Niemann-Pick type C-2a) [DRSC00698] | calcium entry signal, replicate 1: 2.40e7; calcium entry signal, replicate 2: 2.74e7; resting calcium signal, replicate 1: 1.15e7; resting calcium signal, replicate 2: 1.27e7
CG7333 [DRSC16229] | calcium entry signal, replicate 1: 4.16e7; calcium entry signal, replicate 2: 4.50e7; resting calcium signal, replicate 1: 5.71e7; resting calcium signal, replicate 2: 2.10e7
lin-52 [DRSC18106] | calcium entry signal, replicate 1: 2.58e7; calcium entry signal, replicate 2: 3.60e7; resting calcium signal, replicate 1: 1.37e7; resting calcium signal, replicate 2: 1.66e7
Trp1 (Translocation protein 1) [DRSC03465] | calcium entry signal, replicate 1: 2.79e7; calcium entry signal, replicate 2: 4.33e7; resting calcium signal, replicate 1: 1.29e7; resting calcium signal, replicate 2: 1.93e7
CG10969 [DRSC09811] | calcium entry signal, replicate 1: 2.40e7; calcium entry signal, replicate 2: 3.65e7; resting calcium signal, replicate 1: 1.30e7; resting calcium signal, replicate 2: 1.68e7
CG18557 [DRSC00524] | calcium entry signal, replicate 1: 3.47e7; calcium entry signal, replicate 2: 3.87e7; resting calcium signal, replicate 1: 1.64e7; resting calcium signal, replicate 2: 1.72e7
asrij [DRSC04175] | calcium entry signal, replicate 1: 4.19e7; calcium entry signal, replicate 2: 4.11e7; resting calcium signal, replicate 1: 2.12e7; resting calcium signal, replicate 2: 1.84e7
Cpr50Cb (Cuticular protein 50Cb) [DRSC06975] | calcium entry signal, replicate 1: 3.50e7; calcium entry signal, replicate 2: 3.91e7; resting calcium signal, replicate 1: 1.87e7; resting calcium signal, replicate 2: 1.81e7
CG43338 [DRSC22055] | calcium entry signal, replicate 1: 3.16e7; calcium entry signal, replicate 2: 4.05e7; resting calcium signal, replicate 1: 1.65e7; resting calcium signal, replicate 2: 2.36e7
Rab9Db + Rab9Fa [DRSC18445] | calcium entry signal, replicate 1: 3.76e7; calcium entry signal, replicate 2: 3.86e7; resting calcium signal, replicate 1: 1.76e7; resting calcium signal, replicate 2: 1.85e7
CG5860 [DRSC15896] | calcium entry signal, replicate 1: 4.08e7; calcium entry signal, replicate 2: 4.48e7; resting calcium signal, replicate 1: 1.99e7; resting calcium signal, replicate 2: 8.29e7
CG8468 [DRSC07190] | calcium entry signal, replicate 1: 3.93e7; calcium entry signal, replicate 2: 3.76e7; resting calcium signal, replicate 1: 2.14e7; resting calcium signal, replicate 2: 1.72e7
Rgk1 (Rad, Gem/Kir family member 1) [DRSC05785] | calcium entry signal, replicate 1: 3.28e7; calcium entry signal, replicate 2: 3.93e7; resting calcium signal, replicate 1: 1.62e7; resting calcium signal, replicate 2: 2.02e7
Rgk1 (Rad, Gem/Kir family member 1) [DRSC05786] | calcium entry signal, replicate 1: 3.43e7; calcium entry signal, replicate 2: 4.99e7; resting calcium signal, replicate 1: 1.60e7; resting calcium signal, replicate 2: 2.30e7
Rgk1 (Rad, Gem/Kir family member 1) [DRSC05789] | calcium entry signal, replicate 1: 2.26e7; calcium entry signal, replicate 2: 5.31e7; resting calcium signal, replicate 1: 1.07e7; resting calcium signal, replicate 2: 2.31e7
Rgk1 (Rad, Gem/Kir family member 1) [DRSC07343] | calcium entry signal, replicate 1: 5.23e7; calcium entry signal, replicate 2: 3.53e7; resting calcium signal, replicate 1: 1.92e7; resting calcium signal, replicate 2: 1.75e7
Rgk1 (Rad, Gem/Kir family member 1) [DRSC07344] | calcium entry signal, replicate 1: 2.85e7; calcium entry signal, replicate 2: 3.07e7; resting calcium signal, replicate 1: 1.53e7; resting calcium signal, replicate 2: 1.73e7
halo [DRSC00705] | calcium entry signal, replicate 1: 4.44e7; calcium entry signal, replicate 2: 6.41e7; resting calcium signal, replicate 1: 2.00e7; resting calcium signal, replicate 2: 2.32e7
CG17754 [DRSC18131] | calcium entry signal, replicate 1: 3.50e7; calcium entry signal, replicate 2: 3.82e7; resting calcium signal, replicate 1: 1.56e7; resting calcium signal, replicate 2: 1.67e7
FIG4 (FIG4 phosphoinositide 5-phosphatase) [DRSC00515] | calcium entry signal, replicate 1: 3.70e7; resting calcium signal, replicate 1: 1.72e7
CG2962 [DRSC18247] | calcium entry signal, replicate 1: 4.27e7; calcium entry signal, replicate 2: 4.62e7; resting calcium signal, replicate 1: 2.02e7; resting calcium signal, replicate 2: 2.17e7

3 entries already listed, arranged by “calcium entry signal, replicate 1”, descending:
CG5860 [DRSC15896] | calcium entry signal, replicate 1: 4.08e7; calcium entry signal, replicate 2: 4.48e7; resting calcium signal, replicate 1: 1.99e7; resting calcium signal, replicate 2: 8.29e7
Rab9Db + Rab9Fa [DRSC18445] | calcium entry signal, replicate 1: 3.76e7; calcium entry signal, replicate 2: 3.86e7; resting calcium signal, replicate 1: 1.76e7; resting calcium signal, replicate 2: 1.85e7
CG43338 [DRSC22055] | calcium entry signal, replicate 1: 3.16e7; calcium entry signal, replicate 2: 4.05e7; resting calcium signal, replicate 1: 1.65e7; resting calcium signal, replicate 2: 2.36e7
